Source: paper PMC10830483
No constants are given. Whether binding was seen depends on the method and setting. Binding seen in cells or lysates may run through a third protein. Some entries that bind do so weakly or less than the wild type. One block for each molecule: values may come before it.

Sequences of proteins named here, by UniProt entry; tags and fusion partners are left off.
UniProt O14686: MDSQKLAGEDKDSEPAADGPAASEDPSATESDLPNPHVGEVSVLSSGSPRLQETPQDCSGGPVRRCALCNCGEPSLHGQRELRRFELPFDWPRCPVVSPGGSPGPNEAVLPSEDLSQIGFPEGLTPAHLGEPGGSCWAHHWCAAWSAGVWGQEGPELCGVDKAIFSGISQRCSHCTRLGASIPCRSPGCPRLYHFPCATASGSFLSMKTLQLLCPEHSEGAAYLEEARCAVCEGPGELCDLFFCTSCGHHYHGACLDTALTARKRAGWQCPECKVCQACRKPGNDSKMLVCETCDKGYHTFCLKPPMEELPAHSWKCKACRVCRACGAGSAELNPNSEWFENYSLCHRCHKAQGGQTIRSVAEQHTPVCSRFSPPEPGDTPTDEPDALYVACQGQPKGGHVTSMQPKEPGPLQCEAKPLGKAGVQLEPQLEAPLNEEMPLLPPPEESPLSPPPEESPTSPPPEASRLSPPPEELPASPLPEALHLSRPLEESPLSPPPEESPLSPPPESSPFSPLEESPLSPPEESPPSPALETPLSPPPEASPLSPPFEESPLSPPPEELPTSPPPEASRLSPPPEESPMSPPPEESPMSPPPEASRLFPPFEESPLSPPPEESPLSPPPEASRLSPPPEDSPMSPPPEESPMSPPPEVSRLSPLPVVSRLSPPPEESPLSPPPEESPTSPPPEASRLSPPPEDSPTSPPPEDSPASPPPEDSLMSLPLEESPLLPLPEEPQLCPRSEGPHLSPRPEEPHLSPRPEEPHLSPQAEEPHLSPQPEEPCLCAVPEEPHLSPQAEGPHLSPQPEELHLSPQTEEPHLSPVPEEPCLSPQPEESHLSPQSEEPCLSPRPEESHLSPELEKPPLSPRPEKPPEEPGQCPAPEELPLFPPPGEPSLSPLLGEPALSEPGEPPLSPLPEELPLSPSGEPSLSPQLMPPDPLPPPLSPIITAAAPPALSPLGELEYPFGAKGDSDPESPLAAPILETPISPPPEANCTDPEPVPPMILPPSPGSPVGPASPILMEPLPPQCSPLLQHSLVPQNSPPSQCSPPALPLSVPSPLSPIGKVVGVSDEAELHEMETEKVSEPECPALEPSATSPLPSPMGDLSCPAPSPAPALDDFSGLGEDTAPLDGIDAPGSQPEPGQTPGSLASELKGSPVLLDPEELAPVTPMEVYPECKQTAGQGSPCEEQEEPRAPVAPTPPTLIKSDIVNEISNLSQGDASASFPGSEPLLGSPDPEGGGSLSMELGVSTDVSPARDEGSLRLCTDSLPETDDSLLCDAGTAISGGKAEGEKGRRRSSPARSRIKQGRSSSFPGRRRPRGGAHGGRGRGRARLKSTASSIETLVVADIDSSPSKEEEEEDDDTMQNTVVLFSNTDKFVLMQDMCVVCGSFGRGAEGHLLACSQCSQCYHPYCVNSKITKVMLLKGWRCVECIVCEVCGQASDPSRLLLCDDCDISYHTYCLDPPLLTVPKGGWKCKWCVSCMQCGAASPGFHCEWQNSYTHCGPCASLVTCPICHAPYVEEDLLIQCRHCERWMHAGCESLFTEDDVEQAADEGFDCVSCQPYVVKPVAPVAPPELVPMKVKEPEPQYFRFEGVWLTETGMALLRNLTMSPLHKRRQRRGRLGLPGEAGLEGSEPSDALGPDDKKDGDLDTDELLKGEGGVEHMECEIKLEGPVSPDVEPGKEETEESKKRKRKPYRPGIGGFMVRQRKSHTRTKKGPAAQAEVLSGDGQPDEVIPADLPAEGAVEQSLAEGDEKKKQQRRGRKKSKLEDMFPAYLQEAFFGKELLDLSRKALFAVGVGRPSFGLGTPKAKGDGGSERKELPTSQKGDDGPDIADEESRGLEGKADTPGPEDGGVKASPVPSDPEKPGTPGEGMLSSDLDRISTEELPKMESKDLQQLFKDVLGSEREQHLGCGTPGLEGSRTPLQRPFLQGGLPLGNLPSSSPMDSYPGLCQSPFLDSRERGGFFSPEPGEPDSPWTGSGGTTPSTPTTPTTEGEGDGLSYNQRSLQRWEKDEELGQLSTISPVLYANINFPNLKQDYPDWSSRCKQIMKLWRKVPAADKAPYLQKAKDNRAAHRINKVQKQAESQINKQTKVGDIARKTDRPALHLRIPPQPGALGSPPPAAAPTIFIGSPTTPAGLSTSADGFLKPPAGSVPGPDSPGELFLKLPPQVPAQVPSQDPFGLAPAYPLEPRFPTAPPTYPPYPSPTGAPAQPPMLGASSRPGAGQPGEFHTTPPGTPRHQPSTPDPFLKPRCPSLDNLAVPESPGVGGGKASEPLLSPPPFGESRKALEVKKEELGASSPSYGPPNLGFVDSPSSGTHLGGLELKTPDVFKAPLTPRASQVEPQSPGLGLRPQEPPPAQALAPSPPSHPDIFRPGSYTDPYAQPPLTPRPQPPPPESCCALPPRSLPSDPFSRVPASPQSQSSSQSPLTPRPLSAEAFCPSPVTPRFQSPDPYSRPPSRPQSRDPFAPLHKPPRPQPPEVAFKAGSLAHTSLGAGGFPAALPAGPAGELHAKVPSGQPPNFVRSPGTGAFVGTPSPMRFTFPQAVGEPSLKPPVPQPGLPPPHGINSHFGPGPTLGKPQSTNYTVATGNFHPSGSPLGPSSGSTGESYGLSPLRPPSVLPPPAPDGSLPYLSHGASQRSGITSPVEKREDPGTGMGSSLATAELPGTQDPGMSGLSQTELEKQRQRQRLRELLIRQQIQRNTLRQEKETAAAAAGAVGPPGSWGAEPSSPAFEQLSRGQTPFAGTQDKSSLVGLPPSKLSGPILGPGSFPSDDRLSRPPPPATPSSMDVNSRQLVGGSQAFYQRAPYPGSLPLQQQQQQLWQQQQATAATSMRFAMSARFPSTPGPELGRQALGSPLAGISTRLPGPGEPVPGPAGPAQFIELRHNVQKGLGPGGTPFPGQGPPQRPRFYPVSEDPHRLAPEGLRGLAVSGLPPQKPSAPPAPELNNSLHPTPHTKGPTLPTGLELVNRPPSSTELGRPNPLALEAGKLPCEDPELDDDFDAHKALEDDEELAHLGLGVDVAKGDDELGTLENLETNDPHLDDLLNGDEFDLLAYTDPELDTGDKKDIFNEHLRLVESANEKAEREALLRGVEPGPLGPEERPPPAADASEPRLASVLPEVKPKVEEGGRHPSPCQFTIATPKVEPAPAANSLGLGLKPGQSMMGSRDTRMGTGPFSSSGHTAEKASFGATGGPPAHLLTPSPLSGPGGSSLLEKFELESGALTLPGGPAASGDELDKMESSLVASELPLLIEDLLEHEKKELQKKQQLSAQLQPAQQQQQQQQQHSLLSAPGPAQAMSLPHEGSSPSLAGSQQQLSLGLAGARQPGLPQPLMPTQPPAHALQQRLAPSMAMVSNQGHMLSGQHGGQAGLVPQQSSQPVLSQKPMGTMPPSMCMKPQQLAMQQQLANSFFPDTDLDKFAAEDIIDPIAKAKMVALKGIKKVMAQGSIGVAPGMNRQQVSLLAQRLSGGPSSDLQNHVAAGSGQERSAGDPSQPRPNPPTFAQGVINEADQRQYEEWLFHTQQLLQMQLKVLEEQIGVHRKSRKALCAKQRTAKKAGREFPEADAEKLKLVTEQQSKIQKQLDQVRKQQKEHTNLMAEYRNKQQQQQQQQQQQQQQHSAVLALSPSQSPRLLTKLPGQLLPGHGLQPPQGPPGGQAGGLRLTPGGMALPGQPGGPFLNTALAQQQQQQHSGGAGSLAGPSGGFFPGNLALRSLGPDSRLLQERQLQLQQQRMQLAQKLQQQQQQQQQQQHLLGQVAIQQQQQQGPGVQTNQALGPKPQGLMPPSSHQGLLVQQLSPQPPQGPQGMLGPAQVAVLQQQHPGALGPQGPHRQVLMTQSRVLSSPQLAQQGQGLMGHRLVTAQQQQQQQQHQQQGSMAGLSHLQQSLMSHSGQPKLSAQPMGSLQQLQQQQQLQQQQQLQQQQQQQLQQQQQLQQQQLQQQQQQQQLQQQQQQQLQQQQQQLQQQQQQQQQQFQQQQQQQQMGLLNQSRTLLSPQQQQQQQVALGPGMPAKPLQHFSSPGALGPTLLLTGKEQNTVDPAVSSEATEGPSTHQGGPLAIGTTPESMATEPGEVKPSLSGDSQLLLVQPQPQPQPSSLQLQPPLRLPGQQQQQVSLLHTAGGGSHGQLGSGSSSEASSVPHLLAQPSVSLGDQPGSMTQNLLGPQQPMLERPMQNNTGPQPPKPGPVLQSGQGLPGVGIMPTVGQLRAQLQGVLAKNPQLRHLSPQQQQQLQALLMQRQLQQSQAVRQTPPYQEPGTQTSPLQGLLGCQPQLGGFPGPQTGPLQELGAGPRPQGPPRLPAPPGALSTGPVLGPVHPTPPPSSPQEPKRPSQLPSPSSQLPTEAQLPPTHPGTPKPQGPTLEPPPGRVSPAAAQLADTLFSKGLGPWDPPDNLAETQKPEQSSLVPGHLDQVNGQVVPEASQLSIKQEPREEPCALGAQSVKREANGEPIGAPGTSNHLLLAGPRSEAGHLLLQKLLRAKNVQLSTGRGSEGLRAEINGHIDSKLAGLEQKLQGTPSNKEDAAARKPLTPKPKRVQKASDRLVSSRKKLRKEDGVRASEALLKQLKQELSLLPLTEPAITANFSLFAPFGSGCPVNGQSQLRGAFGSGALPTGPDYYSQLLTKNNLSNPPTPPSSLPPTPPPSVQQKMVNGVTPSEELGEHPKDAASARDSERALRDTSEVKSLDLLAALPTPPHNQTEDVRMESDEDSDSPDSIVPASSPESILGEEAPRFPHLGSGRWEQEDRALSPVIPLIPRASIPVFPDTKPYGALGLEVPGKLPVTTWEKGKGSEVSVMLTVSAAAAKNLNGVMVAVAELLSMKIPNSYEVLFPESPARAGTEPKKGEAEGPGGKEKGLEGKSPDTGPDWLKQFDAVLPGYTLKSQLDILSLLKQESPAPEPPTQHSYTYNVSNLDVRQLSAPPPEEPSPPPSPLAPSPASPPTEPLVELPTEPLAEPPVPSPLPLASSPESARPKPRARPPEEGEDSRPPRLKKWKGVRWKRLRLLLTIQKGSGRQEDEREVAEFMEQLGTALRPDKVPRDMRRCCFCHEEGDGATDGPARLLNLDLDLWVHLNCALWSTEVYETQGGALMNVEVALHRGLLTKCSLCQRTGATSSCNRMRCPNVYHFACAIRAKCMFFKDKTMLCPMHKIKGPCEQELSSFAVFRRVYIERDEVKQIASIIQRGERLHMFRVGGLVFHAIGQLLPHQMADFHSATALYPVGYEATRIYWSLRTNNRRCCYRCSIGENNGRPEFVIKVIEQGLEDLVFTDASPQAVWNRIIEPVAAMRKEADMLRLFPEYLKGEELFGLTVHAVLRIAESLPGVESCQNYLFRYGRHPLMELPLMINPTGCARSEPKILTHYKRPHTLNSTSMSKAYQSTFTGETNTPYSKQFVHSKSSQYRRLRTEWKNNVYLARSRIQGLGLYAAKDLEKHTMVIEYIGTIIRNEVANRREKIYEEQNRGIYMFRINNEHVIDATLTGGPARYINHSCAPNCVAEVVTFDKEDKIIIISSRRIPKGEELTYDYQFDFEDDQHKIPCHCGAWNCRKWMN
UniProt Q91X20: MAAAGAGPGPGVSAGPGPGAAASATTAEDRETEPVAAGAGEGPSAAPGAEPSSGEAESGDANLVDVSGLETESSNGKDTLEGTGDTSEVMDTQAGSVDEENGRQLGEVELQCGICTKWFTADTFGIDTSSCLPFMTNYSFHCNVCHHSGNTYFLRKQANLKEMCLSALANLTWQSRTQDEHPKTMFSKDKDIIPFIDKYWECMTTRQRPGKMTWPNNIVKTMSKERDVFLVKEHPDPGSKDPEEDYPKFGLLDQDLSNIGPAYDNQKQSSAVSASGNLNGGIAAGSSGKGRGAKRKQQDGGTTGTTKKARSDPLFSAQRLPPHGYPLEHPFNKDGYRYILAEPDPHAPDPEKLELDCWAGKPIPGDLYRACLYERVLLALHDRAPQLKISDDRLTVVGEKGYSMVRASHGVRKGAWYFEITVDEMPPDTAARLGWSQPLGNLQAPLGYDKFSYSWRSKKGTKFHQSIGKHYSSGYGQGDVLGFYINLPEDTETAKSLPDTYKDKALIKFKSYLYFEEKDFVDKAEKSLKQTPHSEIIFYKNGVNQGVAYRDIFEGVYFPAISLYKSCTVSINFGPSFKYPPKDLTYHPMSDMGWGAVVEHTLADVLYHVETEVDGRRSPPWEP

Tests used:
[1] = biological target: T1, Hepatocyte nuclear factor 4A (HNF4A), overexpressed in HEK293T cells (mouse) (UniProt P49698); experiment: co-IP; lysate of HEK293T cells overexpressing HNF4A; CHAPS buffer, antibody overnight at 4 °C, protein A/G beads; western blot
T1 sequence: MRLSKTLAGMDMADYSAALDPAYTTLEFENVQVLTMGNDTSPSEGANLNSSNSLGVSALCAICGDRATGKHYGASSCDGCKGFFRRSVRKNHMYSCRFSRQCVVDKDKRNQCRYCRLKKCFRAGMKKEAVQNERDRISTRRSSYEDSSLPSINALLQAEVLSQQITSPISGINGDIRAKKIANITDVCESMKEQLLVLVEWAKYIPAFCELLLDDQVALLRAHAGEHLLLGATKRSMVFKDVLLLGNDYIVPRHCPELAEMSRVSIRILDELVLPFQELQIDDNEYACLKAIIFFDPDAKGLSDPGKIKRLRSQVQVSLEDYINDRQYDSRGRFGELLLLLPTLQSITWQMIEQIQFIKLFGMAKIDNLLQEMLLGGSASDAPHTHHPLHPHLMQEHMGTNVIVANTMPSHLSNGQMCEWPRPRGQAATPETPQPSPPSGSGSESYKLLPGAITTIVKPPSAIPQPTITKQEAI

[2] = biological target: T1, Hepatocyte nuclear factor 4A (HNF4A), overexpressed in HEK293T cells (mouse); experiment: proximity ligation; in situ PLA (Duolink) in fixed (4% paraformaldehyde), permeabilised HEK293T cells ectopically expressing HNF4A
[3] = biological target: T2, Hepatocyte nuclear factor 4A (HNF4A), mouse, ectopically expressed in NIH 3T3 cells (mouse) (UniProt P49698); experiment: co-IP; lysate (CHAPS buffer) of NIH 3T3 cells ectopically expressing HNF4A; 2.5 ug HNF4A or MLL4 antibody overnight at 4 °C, IgG as negative control, protein A/G beads, 3 washes with CHAPS buffer; western blot for UTX, ASH2L, RBBP5 or HNF4A
T2 sequence: T1 sequence

[4] = biological target: T2, Hepatocyte nuclear factor 4A (HNF4A), mouse, ectopically expressed in NIH 3T3 cells (mouse); experiment: proximity ligation; in situ PLA (Duolink) in fixed (4% paraformaldehyde), permeabilised NIH 3T3 cells ectopically expressing HNF4A; control cells and single-antibody negative controls
[5] = biological target: T3, Hepatocyte nuclear factor 4A (HNF4A), endogenous in mouse liver (mouse (endogenous in liver)) (UniProt P49698); experiment: co-IP; mouse liver with endogenously expressed HNF4A; western blot; preparation of the liver lysate not described
T3 sequence: T1 sequence

[6] = biological target: Mixed-lineage leukaemia 4 (MLL4), endogenous in NIH 3T3 cells (mouse (endogenous in NIH 3T3)) (UniProt Q6PDK2); experiment: proximity ligation; in situ PLA (Duolink) in fixed (4% paraformaldehyde), permeabilised NIH 3T3 cells ectopically expressing HNF4A; control cells and single-antibody negative controls
[7] = biological target: Mixed-lineage leukaemia 4 (MLL4), endogenous in NIH 3T3 cells (mouse (endogenous in NIH 3T3)) (UniProt Q6PDK2); experiment: co-IP; lysate (CHAPS buffer) of NIH 3T3 cells ectopically expressing HNF4A; 2.5 ug HNF4A or MLL4 antibody overnight at 4 °C, IgG as negative control, protein A/G beads, 3 washes with CHAPS buffer; western blot for UTX, ASH2L, RBBP5 or HNF4A
[8] = biological target: Mixed-lineage leukaemia 4 (MLL4), endogenous in HEK293T cells (human (endogenous in HEK293T)) (UniProt O14686); experiment: proximity ligation; in situ PLA (Duolink) in fixed (4% paraformaldehyde), permeabilised HEK293T cells ectopically expressing HNF4A

Molecule: ASH2L, endogenous in HEK293T cells (from UniProt Q9UBL3 1-628)
binding [1]: binds
binding [2]: binds

Molecule: RBBP5, endogenous in HEK293T cells (from UniProt Q15291 1-538)
binding [1]: binds

Molecule: ASH2L, endogenous in NIH 3T3 cells (from UniProt Q91X20 1-623)
binding [4]: binds
binding [3]: binds

Molecule: ASH2L, endogenous in mouse liver (from UniProt Q91X20 1-623)
binding [5]: binds

Molecule: RBBP5, endogenous in mouse liver (from UniProt Q8BX09 1-538)
binding [5]: binds

The next lines start with the values.

binding [3]: binds
Molecule: RBBP5, endogenous in NIH 3T3 cells (from UniProt Q8BX09 1-538)

binding [6]: binds
binding [7]: binds
B1: Hepatocyte nuclear factor 4A (HNF4A), mouse, ectopically expressed in NIH 3T3 cells (protein, UniProt P49698 1-474)
chain: T1 sequence

binding [8]: binds
B2: Hepatocyte nuclear factor 4A (HNF4A), overexpressed in HEK293T cells (protein, UniProt P49698 1-474)
chain: T1 sequence
